Data as given in the supplement of paper PMC12823440, “Inhibitors supercharge kinase turnover through native proteolytic circuits” (Nature, 2025).
Counter-ions that a name gives are not always drawn. The list shows a part of the results. The calls rarely recur for the same compound in another form.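 In K562 cells expressing nanoluciferase-fused kinases, luminescence was recorded at 4 h intervals between 2 and 18 h, normalized as percent of control with DMSO at 100% and a positive control at 0%. A significant (2 sigma) signal drop marks a time point as decreased. The authors' rule for a hit is not shown and takes in more than the number of time points.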

By UniProt entry, the sequences of proteins in these tests, tags left out. Where a name states a change or a piece, a line headed by the entry shows the natural chain unless it says otherwise.
UniProt P00519, whole entry: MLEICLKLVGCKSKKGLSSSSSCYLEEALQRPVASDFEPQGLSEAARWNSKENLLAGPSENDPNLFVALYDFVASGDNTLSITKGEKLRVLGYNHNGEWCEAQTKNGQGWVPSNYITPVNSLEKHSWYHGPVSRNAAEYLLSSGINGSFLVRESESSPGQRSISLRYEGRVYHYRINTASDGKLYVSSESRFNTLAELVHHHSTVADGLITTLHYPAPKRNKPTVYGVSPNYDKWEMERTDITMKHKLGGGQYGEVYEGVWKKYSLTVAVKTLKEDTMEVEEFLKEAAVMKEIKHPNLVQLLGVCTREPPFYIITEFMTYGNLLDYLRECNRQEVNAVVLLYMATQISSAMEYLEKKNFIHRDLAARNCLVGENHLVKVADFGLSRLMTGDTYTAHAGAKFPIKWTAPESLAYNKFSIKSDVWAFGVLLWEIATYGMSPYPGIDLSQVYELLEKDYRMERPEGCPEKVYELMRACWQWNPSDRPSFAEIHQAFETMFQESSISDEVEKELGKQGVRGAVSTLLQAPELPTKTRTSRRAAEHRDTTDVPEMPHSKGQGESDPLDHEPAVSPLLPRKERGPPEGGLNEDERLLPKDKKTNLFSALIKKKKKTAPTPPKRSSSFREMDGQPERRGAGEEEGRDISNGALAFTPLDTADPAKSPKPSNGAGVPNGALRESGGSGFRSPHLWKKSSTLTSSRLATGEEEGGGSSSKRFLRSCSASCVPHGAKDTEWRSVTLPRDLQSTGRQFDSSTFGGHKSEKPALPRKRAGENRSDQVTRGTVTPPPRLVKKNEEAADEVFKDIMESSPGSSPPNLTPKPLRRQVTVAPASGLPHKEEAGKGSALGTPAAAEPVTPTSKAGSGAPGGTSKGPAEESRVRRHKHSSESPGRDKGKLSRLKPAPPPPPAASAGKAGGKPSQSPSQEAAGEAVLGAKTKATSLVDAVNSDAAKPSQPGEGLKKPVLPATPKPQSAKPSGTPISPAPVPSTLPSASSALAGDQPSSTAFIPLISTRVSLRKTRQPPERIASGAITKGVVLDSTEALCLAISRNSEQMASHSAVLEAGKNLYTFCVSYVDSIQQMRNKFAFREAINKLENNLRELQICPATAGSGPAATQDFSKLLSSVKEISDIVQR
UniProt P31749: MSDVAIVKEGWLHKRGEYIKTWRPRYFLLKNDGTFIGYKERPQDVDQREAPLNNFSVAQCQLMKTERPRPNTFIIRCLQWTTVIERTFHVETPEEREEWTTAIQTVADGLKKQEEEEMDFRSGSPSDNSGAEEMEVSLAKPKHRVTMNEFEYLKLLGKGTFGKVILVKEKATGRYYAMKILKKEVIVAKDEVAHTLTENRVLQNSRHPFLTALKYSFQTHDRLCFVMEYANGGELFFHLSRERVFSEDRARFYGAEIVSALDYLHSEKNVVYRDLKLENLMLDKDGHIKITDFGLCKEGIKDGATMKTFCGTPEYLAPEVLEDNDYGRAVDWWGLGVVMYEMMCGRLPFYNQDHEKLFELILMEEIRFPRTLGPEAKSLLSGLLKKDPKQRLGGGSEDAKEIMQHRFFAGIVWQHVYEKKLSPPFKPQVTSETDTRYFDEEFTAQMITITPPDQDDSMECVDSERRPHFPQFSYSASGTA
UniProt Q9UM73: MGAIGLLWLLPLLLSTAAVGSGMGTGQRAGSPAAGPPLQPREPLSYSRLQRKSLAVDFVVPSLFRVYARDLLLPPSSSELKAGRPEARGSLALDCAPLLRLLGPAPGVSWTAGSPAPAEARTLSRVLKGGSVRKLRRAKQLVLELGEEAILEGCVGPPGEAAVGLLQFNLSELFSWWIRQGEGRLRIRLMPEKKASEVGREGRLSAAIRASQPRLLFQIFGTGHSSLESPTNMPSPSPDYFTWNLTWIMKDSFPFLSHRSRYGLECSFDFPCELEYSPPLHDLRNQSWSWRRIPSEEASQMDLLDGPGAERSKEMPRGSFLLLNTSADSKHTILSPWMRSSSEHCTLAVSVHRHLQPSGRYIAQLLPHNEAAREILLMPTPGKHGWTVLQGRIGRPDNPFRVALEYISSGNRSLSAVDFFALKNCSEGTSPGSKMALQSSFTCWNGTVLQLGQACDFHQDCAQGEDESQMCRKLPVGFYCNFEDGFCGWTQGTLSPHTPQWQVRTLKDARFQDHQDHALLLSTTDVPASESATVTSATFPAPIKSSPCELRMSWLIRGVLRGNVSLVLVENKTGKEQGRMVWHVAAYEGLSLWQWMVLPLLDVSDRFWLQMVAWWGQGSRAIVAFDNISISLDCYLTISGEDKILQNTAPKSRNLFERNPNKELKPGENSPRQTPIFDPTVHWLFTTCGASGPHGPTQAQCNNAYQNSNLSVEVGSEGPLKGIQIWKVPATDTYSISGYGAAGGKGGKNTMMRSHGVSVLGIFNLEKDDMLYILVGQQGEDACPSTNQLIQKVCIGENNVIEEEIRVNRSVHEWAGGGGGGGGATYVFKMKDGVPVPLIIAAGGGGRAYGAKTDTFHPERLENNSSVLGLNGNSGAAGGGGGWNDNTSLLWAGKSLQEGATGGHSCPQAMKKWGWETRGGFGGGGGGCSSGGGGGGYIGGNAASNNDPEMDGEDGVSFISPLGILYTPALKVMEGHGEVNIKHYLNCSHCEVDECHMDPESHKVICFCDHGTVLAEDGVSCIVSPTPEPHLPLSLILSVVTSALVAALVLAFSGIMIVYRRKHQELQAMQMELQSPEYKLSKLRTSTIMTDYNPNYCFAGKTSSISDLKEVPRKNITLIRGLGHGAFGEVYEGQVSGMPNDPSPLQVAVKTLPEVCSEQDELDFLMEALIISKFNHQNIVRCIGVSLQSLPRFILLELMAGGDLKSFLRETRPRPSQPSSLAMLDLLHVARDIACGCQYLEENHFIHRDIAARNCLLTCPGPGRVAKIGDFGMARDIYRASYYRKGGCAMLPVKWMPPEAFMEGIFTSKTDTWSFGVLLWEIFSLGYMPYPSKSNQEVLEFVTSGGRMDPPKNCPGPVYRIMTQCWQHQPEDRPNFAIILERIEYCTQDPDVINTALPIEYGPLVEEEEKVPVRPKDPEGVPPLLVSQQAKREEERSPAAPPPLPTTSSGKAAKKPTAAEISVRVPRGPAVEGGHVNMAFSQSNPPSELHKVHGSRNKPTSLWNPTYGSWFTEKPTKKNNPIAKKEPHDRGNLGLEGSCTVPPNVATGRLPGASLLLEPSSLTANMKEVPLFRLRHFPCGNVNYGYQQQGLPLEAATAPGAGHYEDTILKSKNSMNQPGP
UniProt O14965: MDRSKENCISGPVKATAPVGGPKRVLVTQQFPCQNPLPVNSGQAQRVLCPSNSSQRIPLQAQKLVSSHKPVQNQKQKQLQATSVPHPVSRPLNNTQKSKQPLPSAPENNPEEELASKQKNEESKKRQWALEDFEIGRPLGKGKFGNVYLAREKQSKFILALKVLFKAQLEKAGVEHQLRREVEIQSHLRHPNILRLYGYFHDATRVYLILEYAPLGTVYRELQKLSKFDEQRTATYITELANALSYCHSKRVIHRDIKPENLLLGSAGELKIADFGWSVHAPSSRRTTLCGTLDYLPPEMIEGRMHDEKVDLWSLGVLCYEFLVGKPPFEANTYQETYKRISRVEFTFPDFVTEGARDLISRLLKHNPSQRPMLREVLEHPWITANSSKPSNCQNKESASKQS
UniProt P15056, whole entry, looked up: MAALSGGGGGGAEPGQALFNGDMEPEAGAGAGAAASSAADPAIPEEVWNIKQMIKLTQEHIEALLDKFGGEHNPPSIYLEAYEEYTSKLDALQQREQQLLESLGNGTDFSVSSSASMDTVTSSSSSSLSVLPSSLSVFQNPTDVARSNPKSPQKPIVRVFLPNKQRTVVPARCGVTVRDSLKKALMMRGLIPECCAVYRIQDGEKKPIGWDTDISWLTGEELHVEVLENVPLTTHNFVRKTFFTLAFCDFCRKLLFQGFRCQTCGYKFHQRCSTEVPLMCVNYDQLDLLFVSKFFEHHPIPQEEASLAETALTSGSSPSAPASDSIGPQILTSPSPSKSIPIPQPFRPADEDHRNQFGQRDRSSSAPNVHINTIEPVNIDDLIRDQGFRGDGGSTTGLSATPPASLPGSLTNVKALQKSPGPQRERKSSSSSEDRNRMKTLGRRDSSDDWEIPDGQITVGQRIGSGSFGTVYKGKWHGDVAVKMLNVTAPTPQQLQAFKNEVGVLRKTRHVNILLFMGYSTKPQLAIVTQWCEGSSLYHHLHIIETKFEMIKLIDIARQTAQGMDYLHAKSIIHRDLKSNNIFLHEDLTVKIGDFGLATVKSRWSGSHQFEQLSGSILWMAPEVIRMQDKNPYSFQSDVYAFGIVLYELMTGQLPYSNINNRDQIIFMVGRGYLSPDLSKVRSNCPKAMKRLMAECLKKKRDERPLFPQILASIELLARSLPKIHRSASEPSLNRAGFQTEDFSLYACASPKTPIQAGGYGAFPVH
UniProt Q9UQM7, whole entry: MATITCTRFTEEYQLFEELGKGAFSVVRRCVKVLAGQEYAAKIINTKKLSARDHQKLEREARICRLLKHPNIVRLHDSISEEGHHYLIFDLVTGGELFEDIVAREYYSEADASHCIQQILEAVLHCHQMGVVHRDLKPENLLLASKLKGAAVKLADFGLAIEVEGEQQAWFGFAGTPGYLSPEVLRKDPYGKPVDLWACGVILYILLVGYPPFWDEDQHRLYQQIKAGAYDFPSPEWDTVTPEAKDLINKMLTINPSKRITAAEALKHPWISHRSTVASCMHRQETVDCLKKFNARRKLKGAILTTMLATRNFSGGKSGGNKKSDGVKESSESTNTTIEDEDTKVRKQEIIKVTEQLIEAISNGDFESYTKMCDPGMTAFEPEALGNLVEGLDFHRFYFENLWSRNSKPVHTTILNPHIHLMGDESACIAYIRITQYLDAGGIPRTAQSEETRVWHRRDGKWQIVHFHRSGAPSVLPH
UniProt Q13555: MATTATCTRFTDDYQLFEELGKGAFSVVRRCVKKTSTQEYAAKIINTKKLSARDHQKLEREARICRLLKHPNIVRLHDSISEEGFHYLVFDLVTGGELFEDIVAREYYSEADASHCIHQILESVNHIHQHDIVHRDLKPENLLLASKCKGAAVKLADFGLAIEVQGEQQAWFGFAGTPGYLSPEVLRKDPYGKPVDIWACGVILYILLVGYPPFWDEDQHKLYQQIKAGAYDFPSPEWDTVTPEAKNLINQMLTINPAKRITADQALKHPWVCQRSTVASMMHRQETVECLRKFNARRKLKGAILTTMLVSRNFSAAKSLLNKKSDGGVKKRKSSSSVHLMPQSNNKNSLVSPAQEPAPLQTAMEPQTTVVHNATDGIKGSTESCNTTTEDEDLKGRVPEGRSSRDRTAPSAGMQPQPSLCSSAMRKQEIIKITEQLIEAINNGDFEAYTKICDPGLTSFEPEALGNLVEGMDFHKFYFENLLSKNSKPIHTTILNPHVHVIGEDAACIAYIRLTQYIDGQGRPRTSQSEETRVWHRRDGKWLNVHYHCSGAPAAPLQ
UniProt Q15131: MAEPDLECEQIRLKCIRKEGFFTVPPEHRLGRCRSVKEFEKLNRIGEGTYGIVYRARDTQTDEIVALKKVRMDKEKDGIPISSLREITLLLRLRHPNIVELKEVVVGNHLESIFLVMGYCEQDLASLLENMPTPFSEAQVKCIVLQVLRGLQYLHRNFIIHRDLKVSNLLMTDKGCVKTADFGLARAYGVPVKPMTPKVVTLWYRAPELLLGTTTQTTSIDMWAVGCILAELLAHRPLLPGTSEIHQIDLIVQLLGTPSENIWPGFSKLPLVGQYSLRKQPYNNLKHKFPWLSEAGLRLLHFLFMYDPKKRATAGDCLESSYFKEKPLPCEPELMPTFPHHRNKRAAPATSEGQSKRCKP
UniProt P11802: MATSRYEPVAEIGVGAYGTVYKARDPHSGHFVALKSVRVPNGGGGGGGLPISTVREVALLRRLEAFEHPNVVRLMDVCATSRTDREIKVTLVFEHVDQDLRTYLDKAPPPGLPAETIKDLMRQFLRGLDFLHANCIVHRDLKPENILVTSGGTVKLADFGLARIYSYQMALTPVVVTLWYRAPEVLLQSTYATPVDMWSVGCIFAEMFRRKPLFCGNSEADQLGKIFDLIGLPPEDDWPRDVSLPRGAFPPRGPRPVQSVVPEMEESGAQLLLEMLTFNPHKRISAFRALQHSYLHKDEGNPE
UniProt Q00534, whole entry: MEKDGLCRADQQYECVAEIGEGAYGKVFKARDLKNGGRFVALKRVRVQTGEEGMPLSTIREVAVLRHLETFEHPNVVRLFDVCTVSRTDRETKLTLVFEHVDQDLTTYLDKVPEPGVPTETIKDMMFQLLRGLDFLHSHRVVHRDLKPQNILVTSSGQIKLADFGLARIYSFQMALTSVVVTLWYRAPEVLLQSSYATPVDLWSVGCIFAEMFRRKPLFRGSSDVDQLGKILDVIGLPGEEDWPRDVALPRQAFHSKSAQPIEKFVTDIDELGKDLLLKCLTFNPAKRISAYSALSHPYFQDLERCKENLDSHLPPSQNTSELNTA

Experiments:
Assay in all cases: kinase-Nluc reporter destabilization hit call (1 = scored as downregulated) (binary); higher = compound decreases kinase abundance
Details in all cases: K562; 2-18 h
[1] = target: ABL1 (UniProt P00519)
[2] = target: AKT1 (UniProt P31749)
[3] = target: ALK (UniProt Q9UM73)
[4] = target: ARAF (UniProt P10398)
[5] = target: AURKA (UniProt O14965)
[6] = target: AURKB (UniProt Q96GD4)
[7] = target: AURKC (UniProt Q9UQB9)
[8] = target: BLK (UniProt P51451)
[9] = target: BMX (UniProt P51813)
[10] = target: BRAF (UniProt P15056)
[11] = system: BRAF_V600E
[12] = target: BTK (UniProt Q06187)
[13] = target: CAMK2A (UniProt Q9UQM7)
[14] = target: CAMK2G (UniProt Q13555)
[15] = target: CDK10 (UniProt Q15131)
[16] = target: CDK2 (UniProt P24941)
[17] = target: CDK3 (UniProt Q00526)
[18] = target: CDK4 (UniProt P11802)
[19] = target: CDK5 (UniProt Q00535)
[20] = target: CDK6 (UniProt Q00534)

Measured: kinase-Nluc reporter destabilization hit call

CNC(=O)c1ccc(C)c(-n2c(C)cc(OCc3ccc(F)cc3F)c(Br)c2=O)c1 (10 µM)
inactive: [1] 0 | [2] 0 | [3] 0 | [4] 0 | [5] 0 | [6] 0 | [7] 0 | [8] 0 | [9] 0 | [10] 0 | [11] 0 | [12] 0 | [13] 0 | [14] 0 | [15] 0 | [16] 0 | [17] 0 | [18] 0 | [19] 0 | [20] 0

CCN1CCN(Cc2ccc(-c3cc4c(N[C@H](C)c5ccccc5)ncnc4[nH]3)cc2)CC1 (2.5 µM)
inactive: [1] 0 | [2] 0 | [3] 0 | [4] 0 | [5] 0 | [6] 0 | [7] 0 | [8] 0 | [9] 0 | [10] 0 | [11] 0 | [12] 0 | [13] 0 | [14] 0 | [15] 0 | [16] 0 | [17] 0 | [18] 0 | [19] 0 | [20] 0

CC1(C)C(O[C@@H]2OC[C@@H](O)[C@H](O)[C@H]2O)CC[C@]23CC24CC[C@]2(C)[C@@H]([C@@]5(C)CC[C@@H](C(C)(C)O)O5)[C@H](O)C[C@@]2(C)C4C[C@@H](O[C@@H]2O[C@H](CO)[C@@H](O)[C@H](O)[C@H]2O)C13 (stereo not given in full) [Astragaloside IV] (10 µM)
inactive: [1] 0 | [2] 0 | [3] 0 | [4] 0 | [5] 0 | [6] 0 | [7] 0 | [8] 0 | [9] 0 | [10] 0 | [11] 0 | [12] 0 | [13] 0 | [14] 0 | [15] 0 | [16] 0 | [17] 0 | [18] 0 | [19] 0 | [20] 0

Cc1c(NC(=O)c2cccn(-c3ccc(F)cc3)c2=O)ccc(Oc2ccnc(NC(=O)C3CC3)c2)c1C (2 µM)
inactive: [1] 0 | [2] 0 | [3] 0 | [4] 0 | [5] 0 | [6] 0 | [7] 0 | [8] 0 | [9] 0 | [10] 0 | [11] 0 | [12] 0 | [13] 0 | [14] 0 | [15] 0 | [16] 0 | [17] 0 | [18] 0 | [19] 0 | [20] 0

FC(F)c1nc2ccccc2n1-c1nc(N2CCOCC2)nc(N2CCOCC2)n1 (2 µM)
inactive: [1] 0 | [2] 0 | [3] 0 | [4] 0 | [5] 0 | [6] 0 | [7] 0 | [8] 0 | [9] 0 | [10] 0 | [11] 0 | [12] 0 | [13] 0 | [14] 0 | [15] 0 | [16] 0 | [17] 0 | [18] 0 | [19] 0 | [20] 0

CC(=O)NC1CC(n2cnc(NC(=O)Cc3ccc4ccccc4c3)c2)C1 (stereo not given) (10 µM)
inactive: [1] 0 | [2] 0 | [3] 0 | [4] 0 | [5] 0 | [6] 0 | [7] 0 | [8] 0 | [9] 0 | [10] 0 | [11] 0 | [12] 0 | [13] 0 | [14] 0 | [15] 0 | [16] 0 | [17] 0 | [18] 0 | [19] 0 | [20] 0

COc1ccc(Cl)c(Nc2nc3ccccc3nc2NS(=O)(=O)c2cccc(NC(=O)C(C)(C)N)c2)c1 [Pilaralisib] (10 µM)
inactive: [1] 0 | [2] 0 | [3] 0 | [4] 0 | [5] 0 | [6] 0 | [7] 0 | [8] 0 | [9] 0 | [10] 0 | [11] 0 | [12] 0 | [13] 0 | [14] 0 | [15] 0 | [16] 0 | [17] 0 | [18] 0 | [19] 0 | [20] 0

CCNc1nc(Nc2cc(F)c(C(=O)N3CCOCC3)cc2OC)ncc1C(F)(F)F [GNE-7915 (tosylate)] (10 µM)
inactive: [1] 0 | [2] 0 | [3] 0 | [4] 0 | [5] 0 | [6] 0 | [7] 0 | [8] 0 | [9] 0 | [10] 0 | [11] 0 | [12] 0 | [13] 0 | [14] 0 | [15] 0 | [16] 0 | [17] 0 | [18] 0 | [19] 0 | [20] 0

Cn1cc(-c2ccc3nnc(Sc4ccc5ncccc5c4)n3n2)cn1 (10 µM)
inactive: [1] 0 | [2] 0 | [3] 0 | [4] 0 | [5] 0 | [6] 0 | [7] 0 | [8] 0 | [9] 0 | [10] 0 | [11] 0 | [12] 0 | [13] 0 | [14] 0 | [15] 0 | [16] 0 | [17] 0 | [18] 0 | [19] 0 | [20] 0

NC(=O)c1ccc(-c2nc(-c3ccc4c(c3)OCCO4)c(-c3ccccn3)[nH]2)cc1 (10 µM)
inactive: [1] 0 | [2] 0 | [3] 0 | [4] 0 | [5] 0 | [6] 0 | [7] 0 | [8] 0 | [9] 0 | [10] 0 | [11] 0 | [12] 0 | [13] 0 | [14] 0 | [15] 0 | [16] 0 | [17] 0 | [18] 0 | [19] 0 | [20] 0

CNC(=O)c1cc(COc2nnc(Nc3ccc(Cl)cc3)c3ccoc23)ccn1 [Telatinib] (10 µM)
inactive: [1] 0 | [2] 0 | [3] 0 | [4] 0 | [5] 0 | [6] 0 | [7] 0 | [8] 0 | [9] 0 | [10] 0 | [11] 0 | [12] 0 | [13] 0 | [14] 0 | [15] 0 | [16] 0 | [17] 0 | [18] 0 | [19] 0 | [20] 0

CN1C(=O)N[C@H](Cc2c[nH]c3c(Cl)cccc23)C1=O [Necrostatin 2] (10 µM)
inactive: [1] 0 | [2] 0 | [3] 0 | [4] 0 | [5] 0 | [6] 0 | [7] 0 | [8] 0 | [9] 0 | [10] 0 | [11] 0 | [12] 0 | [13] 0 | [14] 0 | [15] 0 | [16] 0 | [17] 0 | [18] 0 | [19] 0 | [20] 0

FC(F)(F)c1ccc(CNc2ccc(Cc3c[nH]c4ncccc34)cn2)cc1 (10 µM)
inactive: [1] 0 | [2] 0 | [3] 0 | [4] 0 | [5] 0 | [6] 0 | [7] 0 | [8] 0 | [9] 0 | [10] 0 | [11] 0 | [12] 0 | [13] 0 | [14] 0 | [15] 0 | [16] 0 | [17] 0 | [18] 0 | [19] 0 | [20] 0

CCS(=O)(=O)c1ncc(Cl)c(C(=O)N(Cc2ccc(Cl)cc2)Cc2ccco2)n1 (2.5 µM)
inactive: [1] 0 | [2] 0 | [3] 0 | [4] 0 | [5] 0 | [6] 0 | [7] 0 | [8] 0 | [9] 0 | [10] 0 | [11] 0 | [12] 0 | [13] 0 | [14] 0 | [15] 0 | [16] 0 | [17] 0 | [18] 0 | [19] 0 | [20] 0

N#CCC1CCN(c2nc(Nc3ccc(N4CCC(O)CC4)cc3)c3c(=O)[nH]ncc3n2)CC1 [Gusacitinib] (10 µM)
inactive: [1] 0 | [2] 0 | [3] 0 | [4] 0 | [5] 0 | [6] 0 | [7] 0 | [8] 0 | [9] 0 | [10] 0 | [11] 0 | [12] 0 | [13] 0 | [14] 0 | [15] 0 | [16] 0 | [17] 0 | [18] 0 | [19] 0 | [20] 0

O=C1NC(=O)/C(=C/c2ccc3nccnc3c2)S1 (10 µM)
inactive: [1] 0 | [2] 0 | [3] 0 | [4] 0 | [5] 0 | [6] 0 | [7] 0 | [8] 0 | [9] 0 | [10] 0 | [11] 0 | [12] 0 | [13] 0 | [14] 0 | [15] 0 | [16] 0 | [17] 0 | [18] 0 | [19] 0 | [20] 0

No new results follow: 2 of the compounds above.
FC(F)(F)c1ccc(CNc2ccc(Cc3c[nH]c4ncccc34)cn2)cc1 (10 µM)
inactive: [1] 0 | [2] 0 | [3] 0 | [4] 0 | [5] 0 | [6] 0 | [7] 0 | [8] 0 | [9] 0 | [10] 0 | [11] 0 | [12] 0 | [13] 0 | [14] 0 | [15] 0 | [16] 0 | [17] 0 | [18] 0 | [19] 0 | [20] 0

CCS(=O)(=O)c1ncc(Cl)c(C(=O)N(Cc2ccc(Cl)cc2)Cc2ccco2)n1 (2.5 µM)
inactive: [1] 0 | [2] 0 | [3] 0 | [4] 0 | [5] 0 | [6] 0 | [7] 0 | [8] 0 | [9] 0 | [10] 0 | [11] 0 | [12] 0 | [13] 0 | [14] 0 | [15] 0 | [16] 0 | [17] 0 | [18] 0 | [19] 0 | [20] 0

The listing continues:

CC(C)(O)CNc1ncc(-c2ccnc(Nc3ccnc(Cl)c3)n2)c(CC2CC2)n1 (2.5 µM)
inactive: [1] 0 | [2] 0 | [3] 0 | [4] 0 | [5] 0 | [6] 0 | [7] 0 | [8] 0 | [9] 0 | [10] 0 | [11] 0 | [12] 0 | [13] 0 | [14] 0 | [15] 0 | [16] 0 | [17] 0 | [18] 0 | [19] 0 | [20] 0

Nc1cc(C(F)(F)F)c(-c2cc(N3CCOCC3)nc(N3CCOCC3)n2)cn1 [Buparlisib (Hydrochloride)] (2.5 µM)
inactive: [1] 0 | [2] 0 | [3] 0 | [4] 0 | [5] 0 | [6] 0 | [7] 0 | [8] 0 | [9] 0 | [10] 0 | [11] 0 | [12] 0 | [13] 0 | [14] 0 | [15] 0 | [16] 0 | [17] 0 | [18] 0 | [19] 0 | [20] 0
